# Percent effect of library compounds

The values are deposited in ChEMBL (CHEMBL3988442, “University of Dundee, Small-Polar-MMV Screening Library” (2021)).

Mtb cholesterol medium: 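Whole-cell growth test on Mycobacterium tuberculosis, read after 4 days in a medium based on cholesterol and the lipid DPPC; the read-out is not stated. Concentration: 50 µM. Higher reads as more growth inhibition (inferred: compounds with an IC50 in retests scored well above the rest). Of about 69,000 compounds tested this way, about 370 (0.54%) reached 50% or more in at least one test.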
Mtb glucose medium: 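Phenotypic screen: M. tuberculosis growth, glucose 7H9 medium, 3 days; the read-out is not stated. Tested at 50 µM. Higher reads as more growth inhibition (inferred: compounds with an IC50 in retests scored well above the rest). About 69,000 compounds were tested under these conditions; 1.1% (about 760) showed 50% or more at least once.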

Each number is a percent effect as filed.
The controls that fix the scale are not given in the record; negative values are as filed.
The compounds are a random part of those screened.
Two or more numbers in one place are separate tests of the same structure; such repeats can differ widely.

compound | Mtb cholesterol medium | Mtb glucose medium
[H][C@]12C[C@H](C(=O)NC)N(C)[C@@]1([H])CN(C(=O)c1ccc(C)nc1)C2 | -19.88 | 1.509
COCCc1noc(CN(C)C(=O)C(C)N2CCc3ccccc3C2)n1 (centres undefined) | 6.936 | 16.25
N#Cc1c(CN2CCCC2Cn2cccn2)cn2ccccc12 (centres undefined) | 3.945 | 10.52 and -0.4101
CC(C)c1nc(-c2ccc(=O)[nH]n2)n(-c2ccc3c(c2)OCO3)n1 | -3.923 | -14.24
CNC(=O)NC(=O)C(C)N1CCN(c2ccc(C#N)cc2F)CC1 (centres undefined) | 3.81 | -11.54
CC(C)CN1CC2(CCN(C(=O)C(O)c3ccccc3Cl)CC2)CC1=O (centres undefined) | -9.884 | -13.07
CCCc1n[nH]c(C2CN(C(=O)Cc3ccc(C)nc3)CCO2)n1 (centres undefined) | -4.947 | 6.866 and 0.6835
O=C(O)C(F)(F)F.[H][C@@]12CN(C(=O)c3ccncc3F)C[C@]1([H])OCCN2C(C)C | 6.742 | 3.645 and -6.651
CCc1ccc(C(=O)N2CC[C@H](Oc3cccnc3C)[C@@H](O)CC2)cc1 | -17.63 | -18.47
O=C(c1n[nH]cc1Cl)N1CCCC(n2nnc3cc(F)ccc32)C1 (centres undefined) | -6.858 | 26.35
CCCn1cc(C(=O)NC(C)c2c(C)nn(CC)c2C)c(C)n1 (centres undefined) | -1.66 | -15.05 and -6.574
Cc1nc(C2CCCN2CC(=O)Nc2cc(C(C)(C)C)nn2C)no1 (centres undefined) | 13.57 | 24.51
CCc1cc(NCCc2cc(F)cc(F)c2)n2nccc2n1 | 4.991 | -7.625
O=C(NCCNc1ccccn1)NC1CCCC1 | -15.19 | 1.314 and 3.309
Cc1nc(C)c(CCNC(Cc2ccncc2)C(F)(F)F)s1 (centres undefined) | 1.37 | 12.75
O=C(NCCc1nnc2n1CCC2)NCC1(c2ccccc2F)CC1 | 13.23 | 3.851
O=C(O)C(F)(F)F.O=C(O)C(F)(F)F.O=C(O)C(F)(F)F.OCCN1CCC2(CC1)CC(NCc1ccccn1)c1ccccc1O2 (centres undefined) | -30.63 | -18.02
CCNC(=O)NCC(CC)(OC)c1ccccc1 (centres undefined) | 21.51 | 1.167 and 2.858
CN(C(=O)c1ccc(Cl)cc1)C1CCN(c2ccccn2)CC1 | 10.29 | 45.58
CCc1cc(N2CCC3(CCCNC3=O)C2)nc(N2CCOCC2)n1 (centres undefined) | -6.666 | -17.99
COc1ccc(F)c(CN2CCCC(O)(CNCC(C)(C)C)C2=O)c1 (centres undefined) | -9.116 | -26.08
[H][C@@]12CCC(=O)N(CCCOC)[C@]1([H])CCN(c1nc3ccccc3s1)C2 | 25.25 | 8.267 and -20.39
COCCN(C)C(C)Cc1ccccc1OC (centres undefined) | -14.06 | -23.09 and -4.795
O=C(O)C(F)(F)F.[H][C@@]12CCN(Cc3cccc(C#N)c3)[C@@]1([H])CC(=O)N2C | -8.783 and 7.296 | 4.559
CCc1nc(C2CCCN(C(=O)c3ccccc3O)C2)no1 (centres undefined) | 11.92 | -1.107 and 0.3773
CCN(CC)C1CCN(C(=O)NCc2cccc(-n3ccnc3)c2)C1 (centres undefined) | 7.29 | 0.1379
Cc1nc(C2CCN(C(=O)c3ccnn3C)CC2)c2sccn12 | -0.1836 | 15.21
Cl.Nc1ncc(-c2csc(NC(=O)C[C@H]3COCCN3)n2)cn1 | -4.439 | 13.95
O=C(CCc1ccc(Br)cc1)NCCc1nnc[nH]1 | -3.919 | 3.313 and 123
CSc1cccc(CN(C)C(=O)c2cccc(C3CCCNC3)c2)c1 (centres undefined) | 13.84 | -1.573
Cc1nn(C)c2c(NCCn3cccn3)ncnc12 | 11.22 | 34.11
CN(Cc1n[nH]c(=O)n1CCc1ccccc1F)S(C)(=O)=O | 1.622 | -9.576
O=C(O)C(F)(F)F.O=C(O)C(F)(F)F.[H][C@@]12CN(Cc3cccs3)CCC[C@]1(C(=O)OCC)CN(CC(C)C)C2 | 5.902 | 26.92
Cc1cccc(CN2CC3(CCN(S(=O)(=O)C4CC4)CC3)OCC2=O)n1.O=C(O)C(F)(F)F | 2.131 | -6.488
Cc1nn(C)c2nc(N3CCC(C(O)Cc4ccccc4)CC3)sc12 (centres undefined) | 3.253 and 24.84 | 10.06
[H][C@]12CC[C@]([H])(CN(S(C)(=O)=O)C1)N(CC(=O)Nc1ccn(C)n1)C2 | 14.95 | 9.612
CCC1CCCCN1S(=O)(=O)c1c(C)noc1C (centres undefined) | 1.501 | 17.24
Cc1cc(C)n(CC2CCCN2C(=O)c2cccn3ccnc23)n1 (centres undefined) | -1.227 | -35.9
Cc1noc(-c2cnc(NCC3CCCO3)nc2-c2ccco2)c1C (centres undefined) | -5.801 and 19.17 | 22.56
O=C(O)C(F)(F)F.O=C1COC2(CCN(C(=O)c3ccco3)CC2)CN1Cc1ccccn1 | 28.05 | 4.324
CCC(C)(CC(=O)OC)NCc1nc(C)no1 (centres undefined) | 12.15 | -1.724 and 5.608
CN(C)S(=O)(=O)NCC1(c2ccccc2Br)CC1 | 12.58 | 14.1
[H][C@]12CN(c3ccccn3)CCN1C[C@H](c1ccccc1)[C@H]2CO | 7.114 | 5.942
O=C(O)C(F)(F)F.O=C(O)C(F)(F)F.O=C(O)C(F)(F)F.[H][C@@]12CN(Cc3ccsc3)C[C@]1([H])OCCN2CCN1CCCC1 | 1.373 | -4.896 and 5.178
COC(=O)CN1N=C(C(=O)N2CCCC2)S(=O)(=O)c2ccccc21 | -17.94 | 3.663 and 5.912
O=C1C(Sc2nnnn2C2CC2)CCN1c1ccccc1Cl (centres undefined) | -0.2068 | 4.17
CCc1ncc(C(=O)N(C)C(C)c2ccc3c(c2)OCCO3)cn1 (centres undefined) | 0.7399 | 20.18
Cc1ccc2oc(C(=O)N3CCCC(c4noc(C)n4)C3)cc2n1 (centres undefined) | -5.78 | -18.81
COc1ccc(NC(=O)CNc2ccc(Br)cc2F)cc1 | 13.17 | 28.86 and 45.19
COCC1COCCC12CCN(S(=O)(=O)c1cccnc1)CC2.O=C(O)C(F)(F)F (centres undefined) | 8.542 | -1.304
Cc1noc(C)c1CC(=O)NCc1ccnc(OCC(F)(F)F)c1 | 18.81 | -13.95
CN(C)c1ncc2c(c1C(=O)O)CCN(Cc1ccco1)C2.O=C(O)C(F)(F)F.O=C(O)C(F)(F)F | -0.144 | 16.52
CC(C)n1cnnc1CN1CCC2(CCCN(C3CCCCC3)C2=O)C1 (centres undefined) | 14.7 | 4.656
Cc1ccc(C(=O)NCC(C)Cn2ccnc2C)c(=O)[nH]1 (centres undefined) | -22.96 | -5.32
CCCc1noc(CS(=O)(=O)CC(=O)NC(C)CCC)n1 (centres undefined) | -8.16 | -6.371
CN(C)Cc1ccccc1CN(C)c1ncnc2[nH]ccc12 | -1.534 and -17.91 | 16.24
CCN1CCC2(CN(C(=O)N(C)C)CC23CCNCC3)C1=O.O=C(O)C(F)(F)F (centres undefined) | 24.48 | 8.539
CN1CCCC(C(=O)N2CCC(Oc3ccc(C#N)cn3)CC2)C1 (centres undefined) | -5.851 | 35.57
Cn1cc(C2CCCN2C(=O)COCCc2ccccc2)cn1 (centres undefined) | -3.785 | -4.125 and -45.19
COc1ccc(-n2ccc(C(=O)NCCN3CCCC(C)C3)n2)cc1 (centres undefined) | -20.78 | -18.99
CC1=CCN(C(=O)Nc2ccccc2N2CCOC2=O)CC1 | 16.75 | 23.34
COc1cc(NC2CCCN(c3ncccc3C#N)C2)cc(OC)c1 (centres undefined) | -0.03544 | 31.66
CS(=O)(=O)NCCC1CN(Cc2ccccc2F)CCO1 (centres undefined) | -17.24 | -6.799 and 9.21
O=C1COc2c(cccc2C(=O)N2CCCC2Cn2cccn2)N1 (centres undefined) | 1.261 | 5.393
CCCn1ccc2cc(NC(=O)CC3CCCO3)ccc21 (centres undefined) | 22.09 | 5.621
COCC1CCCN(C(=O)c2ccc(NC(=O)CC(C)C)c(C)c2)C1 (centres undefined) | 5.94 | 2.779
NCCc1n[nH]c(=O)n1-c1cccc(Cl)c1Cl | 2.971 | -43.04
COC(=O)c1ccc(N2CCN(C(=O)CCCc3cn[nH]c3)CC2)cc1 | 6.358 | -4.531 and -19.21
CCN1CCN(S(=O)(=O)c2c[nH]c(C(C)C)n2)c2ccccc21 | 2.344 | 32.42 and 65.91
CC(=O)NC1CCCN(C(=O)NCc2cccnc2N(C)C)C1 (centres undefined) | 9.143 | 2.044

For reference, 8 entries once more:

compound	Mtb cholesterol medium	Mtb glucose medium
CCc1cc(NCCc2cc(F)cc(F)c2)n2nccc2n1	4.991	-7.625
COCCN(C)C(C)Cc1ccccc1OC (centres undefined)	-14.06	-23.09 and -4.795
O=C1COc2c(cccc2C(=O)N2CCCC2Cn2cccn2)N1 (centres undefined)	1.261	5.393
CCc1cc(N2CCC3(CCCNC3=O)C2)nc(N2CCOCC2)n1 (centres undefined)	-6.666	-17.99
Cc1nc(C)c(CCNC(Cc2ccncc2)C(F)(F)F)s1 (centres undefined)	1.37	12.75
CCCc1noc(CS(=O)(=O)CC(=O)NC(C)CCC)n1 (centres undefined)	-8.16	-6.371
CN(Cc1n[nH]c(=O)n1CCc1ccccc1F)S(C)(=O)=O	1.622	-9.576
CSc1cccc(CN(C)C(=O)c2cccc(C3CCCNC3)c2)c1 (centres undefined)	13.84	-1.573